These are yes or no findings as the source states them, for the method shown. Binding seen in cells or lysates may run through a third protein. Here binding means that the protein was enriched with, or labelled near, the bait; the list need not be complete. For part of these data: No binding means not detected with the bait.
How the values were obtained:
[1] = target: GFP‐Eps8‐wild type (WT) (mouse (primer names: mEps8)) (UniProt Q08509); assay: condition: only cells treated with 50 μM CK-666 for 1 h; affinity purification with mass spectrometry; as a2, the sample of cells treated with 50 μM CK-666 for 1 h, compared directly with the nontreated (DMSO) sample
[2] = target: GFP‐Eps8‐wild type (WT) (mouse (primer names: mEps8)) (UniProt Q08509); assay: affinity purification with mass spectrometry; whole-cell GFP-trap pull-down of GFP-Eps8-WT bait from transfected CAD cells treated with DMSO or 50 μM CK-666 for 1 h; on-bead digestion, LC-MS/MS; hits against cytosolic GFP-expressing cells; three preparations
IRSp53‐EGFP = IRSp53‐EGFP (UniProt Q9UQB8); assay: affinity purification with mass spectrometry; whole-cell GFP-trap pull-down of IRSp53-EGFP bait from transfected CAD cells treated with DMSO or 50 μM CK-666 for 1 h; on-bead digestion, LC-MS/MS; hits against cytosolic GFP-expressing cells; five preparations

The chains behind the UniProt entries cited, without tags or fusion partners.
UniProt Q08509: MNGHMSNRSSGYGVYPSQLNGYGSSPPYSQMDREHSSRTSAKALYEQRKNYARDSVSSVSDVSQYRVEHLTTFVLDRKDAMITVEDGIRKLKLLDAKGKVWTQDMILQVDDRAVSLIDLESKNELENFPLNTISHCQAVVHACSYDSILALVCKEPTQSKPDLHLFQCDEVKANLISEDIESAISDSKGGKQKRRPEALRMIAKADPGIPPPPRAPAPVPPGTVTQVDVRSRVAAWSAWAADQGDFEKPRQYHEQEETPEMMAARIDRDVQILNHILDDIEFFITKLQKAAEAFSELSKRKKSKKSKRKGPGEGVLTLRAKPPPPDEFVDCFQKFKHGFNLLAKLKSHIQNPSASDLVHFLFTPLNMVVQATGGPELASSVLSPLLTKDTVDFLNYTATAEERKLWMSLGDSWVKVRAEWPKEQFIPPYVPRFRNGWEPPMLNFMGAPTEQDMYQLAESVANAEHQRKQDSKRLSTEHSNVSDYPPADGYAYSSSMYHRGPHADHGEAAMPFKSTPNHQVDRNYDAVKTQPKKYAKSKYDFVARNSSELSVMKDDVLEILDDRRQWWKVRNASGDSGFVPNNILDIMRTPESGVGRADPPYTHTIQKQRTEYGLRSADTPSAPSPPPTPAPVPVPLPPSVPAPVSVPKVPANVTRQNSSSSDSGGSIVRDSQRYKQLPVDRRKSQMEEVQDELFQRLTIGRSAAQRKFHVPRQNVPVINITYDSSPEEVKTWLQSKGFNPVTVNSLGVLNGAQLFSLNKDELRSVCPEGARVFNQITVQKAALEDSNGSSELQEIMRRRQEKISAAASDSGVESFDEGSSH
UniProt Q9UQB8: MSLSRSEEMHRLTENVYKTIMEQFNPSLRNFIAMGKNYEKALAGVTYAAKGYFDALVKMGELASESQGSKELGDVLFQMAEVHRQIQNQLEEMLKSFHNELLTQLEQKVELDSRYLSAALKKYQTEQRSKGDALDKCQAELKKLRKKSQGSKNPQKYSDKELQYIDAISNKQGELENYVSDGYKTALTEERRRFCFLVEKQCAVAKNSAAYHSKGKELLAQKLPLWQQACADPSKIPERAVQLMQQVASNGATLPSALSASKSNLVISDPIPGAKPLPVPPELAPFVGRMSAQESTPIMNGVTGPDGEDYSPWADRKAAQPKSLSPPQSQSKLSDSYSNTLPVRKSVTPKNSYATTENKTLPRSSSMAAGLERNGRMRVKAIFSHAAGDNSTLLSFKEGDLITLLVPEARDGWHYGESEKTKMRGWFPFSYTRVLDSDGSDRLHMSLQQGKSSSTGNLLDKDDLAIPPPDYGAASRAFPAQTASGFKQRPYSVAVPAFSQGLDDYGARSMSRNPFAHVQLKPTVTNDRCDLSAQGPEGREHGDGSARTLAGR

Row | binding [1] | binding [2] | binding (IRSp53‐EGFP) | Binder
1 | no binding | binds | – | Slingshot homology 1 (Ssh1) (protein, UniProt Q76I79 1-1042) MALVTLQRSPTPSAASSSASNSELEAGSDEERKLNLSLSESFFMVKGAALFLQQGNSPQGQRSLQHPHKHAGDLPQHLQVMINLLRCEDRIKLAVRLESVWTDRVRYMVVVYTSGRQDTEENILLGVDFSSKESKSCTIGMVLRLWSDTKIHLDGDGGFSVSTAGRMHIFKPVSVQAMWSALQVLHKACEVARRHNYFPGGVALIWATYYESCISSEQSCINEWNAMQDLESTRPDSPALFVDKPTEGERTERLIKAKLRSIMMSQDLENVTSKEIRNELEKQMNCNLKEFKEFIDNEMLLILGQMDKPSLIFDHLYLGSEWNASNLEELQGSGVDYILNVTREIDNFFPGLFAYHNIRVYDEETTDLLAHWNEAYHFINKAKRNHSKCLVHCKMGVSRSASTVIAYAMKEFGWPLEKAYNYVKQKRSITRPNAGFMRQLSEYEGILDASKQRHNKLWRQQPTDDTIAEPSEFLPETLDGALDAQLPCLDDTTHPGLPRSLAPGGPALPCCFRRLSDPLLLPHHDETGGLVHLEDLEKDALLEEEESQPVEVHKLVQHPQEGARLCEKDVKRKLEFGNSKPRSDSLPQVEELEKDGSPRTGRWRRASTQLDRSLLDQENLNNNNSKRSCPDDLERDAMFGILSKVKPPYTSCADCMYPTAGGTPEAYMERHEDPSSSAICTQPTFLPHVTSSPMAHASSRSRAPERPASGPANTSPFLLPAGSRKPDVSGSGAGAAPEPPASLLEPSRETSKALPKSLQLKNPHCDKNAANMEVSAKEEPSPKKDPKPAKDLRLLFSNEAEKPTTNSYLMQHQESIIQLQKAGLVRKHTKELERLKSLPSDSPAACRDSATCRLEASIPEEGSQEPAHPALCSQAGSEEQPVGGTLQKSPTSTLPRLDHTSNFSKDFLKTVCYTPTSSSISSNLTRSSSSDSIHSVRGKPGLVKQRAQEIETRLRLAGLTVSSPLKRSHSLAKLGSLNFSTEDLSSEADTSTIADSQDAKCGLSSSFLPEPQSAPRDPAATSKSSGKSAPEHLKSPSRVNKS
2 | – | binds | binds | tropomodulin 3 (Tmod3) (protein, UniProt Q9JHJ0 1-352) MALPFRKDLGDYKDLDEDELLGKLSESELKQLETVLDDLDPENALLPAGFRQKNQTSKSATGPFDRERLLSYLEKQALEHKDRDDYVPYTGEKKGKIFIPKQKPAQTLTEETISLDPELEEALTSASDTELCDLAAILGMHNLIADTPFCDVLGSSNGVNQERFPNVVKGEKILPVFDEPPNPTNVEESLKRIRENDARLVEVNLNNIKNIPIPTLKDFAKTLEANTHVKHFSLAATRSNDPVAVAFADMLKVNKTLKSLNMESNFITGAGVLALIDALRDNETLMELKIDNQRQQLGTSVELEMAKMLEENTNILKFGYQFTQQGPRTRAANAITKNNDLVRKRRIEGDHQ
3 | – | – | binds | delphilin (Grid2ip) (protein, UniProt Q0QWG9 1-1203) MPATNQGWPEDFGFQLGGSGPCFVIEVAEGSSAHAGGLRPGDQILEVEGLAVGGLSRERIVRLARRCPRVPPSLGVLPGPEGGPTALTAAWLTRRFGRSLPLSRELLRLAGGPRPDAVHRERRRKAQEFSCQVDDILGDRLTAKEQVFTALKQFAAEQRVDELVWTLTLVLPSEAQGPVLDNLRIFIPKKHRARFDEVVSQGLLGKLCRARRAQGAQRLRRSRSEERPERLLVSTRASAAPRRPDEPPPRKATSLLGGRTGPGGPRRTVRVYKGNKSFGFTLRGHGPVWIESVLPGSPAENASLKSGDRILFLNGLDMRNCSHDKVVSMLQGSGAMPTLVVEEGPVPFASDSDSLDSPTRASALTSLQWVADILPSSIRVQGRTFSQQLDHLLTPPERYGVCRALERFFQHRNIDTLIVDVYPVLDTPAKQVLWQFLYQLLTYEEQELCQEKIACFLGYTAMTEPESSLDLEPESTPEPTPEPQPRSSLRASSMCRRSLRSQGLETSLSCGPGDCPEMPLPLIPGERQAGDGTSLPETPNPKMMSAVYAELESRLNSSFKGKIGTMSKSRASPPVPSLVGTSGPRTLSGVSWPSDRLLPSPCYDPLCSGGLASPSSSESHPYASLDSSRAPSPQPGLGSIHADSPPSPDPIRPPSRRKLFAFSRPVRSRDTDRFLDALSEQLGPRLSIVDDFLTPENDYEEMSFHDDQGSFVTNERSSASECVSSSEEGSSLTYSSISDHIPPPPLSPPPPPPLPFHDPKPSSRTSDGPRGPPQSLTKPLTQINHPVPPPPPPPLPPPVPCAPPMLSRGVGHRRSETSHMSVKRLRWEQVENSEGTIWGQLGEDSDYDKLSDMVKYLDLELHFGTQKPPKPVPGPEPFRKKEVVEILSHKKAYNTSILLAHLKLTPGELRQVLMSMEPRRLEPAHLAQLLLFAPDADEEQRYQAFREAPGRLSEPDQFVLQMLSVPEYKTRLRSLHFQATLQEKTEEIRGSLECLRQASLELKNSRKLAKILEFVLAMGNYLNDGQPKTNKTTGFKINFLTELNSTKTVDGKSTFLHILAKSLSQHFPELLGFAQDLPTVPLAAKVNQRALTGDLADLHDTVSEIQVACQSMAPSSEDRFAVVMASFLETAQPALRALDGLQREAMEELGKALAFFGEDSKATTSEAFFGIFSEFMSKFERALSDLQAGDGPRSSGMVSPLAW
4 | – | – | binds | Drebrin (Dbn1) (protein, UniProt Q9QXS6 1-706) MAGVSFSGHRLELLAAYEEVIREESAADWALYTYEDGSDDLKLAASGEGGLQELSGHFENQKVMYGFCSVKDSQAALPKYVLINWVGEDVPDARKCACASHVAKVAEFFQGVDVIVNASSVEDIDAGAIGQRLSNGLARLSSPVLHRLRLREDENAEPVGTTYQKTDAAVEMKRINREQFWEQAKKEEELRKEEERKKALDARLRFEQERMEQERQEQEERERRYREREQQIEEHRRKQQSLEAEEAKRRLKEQSIFGDQRDEEEESQMKKSESEVEEAAAIIAQRPDNPREFFRQQERVASASGGSCDAPAPAPFNHRPGRPYCPFIKASDSGPSSSSSSSSSPPRTPFPYITCHRTPNLSSSLPCSHLDSHRRMAPTPIPTRSPSDSSTASTPIAEQIERALDEVTSSQPPPPPPPPPPTQEAQETTPSLDEELSKEAKVTAAPEVWAGCAAEPPQAQEPPLLQSSPLEDSMCTESPEQAALAAPAEPAASVTSVADVHAADTIETTTATTDTTIANNVTPAAASLIDLWPGNGEEASTLQAEPRVPTPPSGAEASLAEVPLLNEAAQEPLPPVGEGCANLLNFDELPEPPATFCDPEEEVGETLAASQVLTMPSALEEVDQVLEQELEPEPHLLTNGETTQKEGTQASEGYFSQSQEEEFAQSEEPCAKVPPPVFYNKPPEIDITCWDADPVPEEEEGFEGGD

Source: article PMC10711657
